Drawing on PubChem BioAssay AID264 (DTP/NCI, 2004), this text covers survivor count and T/C for 23 molecules.

The subject of the experiment is nude mice, LX-1 lung xenograft intrarenal, tumor weight T/C. The experiment in a line: NCI In Vivo Anticancer Drug Screen. Data for tumor model Human Lung LX-1 Xenograft (intrarenal inoculation) in NU/NU Swiss (nude) mice. The settings on record: T/C endpoint: mean tumor weight change, higher T/C = larger tumour; for T/C: evaluated on day 11. In a few lines: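 Antitumor effect is expressed as a ratio: the mean tumor measurement of the drug-treated group relative to that of the vehicle-dosed control group.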

Setting [1] is: dose: 100.0 mg/kg/injection, schedule: Q04DX003 (sc), vehicle: saline.
Where [2] appears, read: dose: 1200.0 mg/kg/injection, schedule: Q04DX003 (sc), vehicle: saline with Tween-80.
[3] abbreviates: dose: 800.0 mg/kg/injection, schedule: Q04DX003 (sc), vehicle: saline.
Setting [4] is: dose: 200.0 mg/kg/injection, schedule: Q01DX010 (sc), vehicle: saline.

The list is a part of this screen's results and no random one: it is rich in T/C values a quarter to a half above the control, in often repeated tests (any T/C) and in doses without a T/C. Other doses and runs of a compound stand elsewhere. T/C gives the treated animals as a percentage of the vehicle group. Schedules are NCI's codes, taken here to give the interval after Q, in days (D) or hours (H), and the number of doses after X. Some values lie below zero, which means that the treated tumours became smaller. Some entries hold several experiments; their values stand side by side, smallest first. Some T/C values are followed by the survivors on the day toxicity was checked, most often the fifth; without a count, all were alive then. Some doses have a count of surviving animals in place of a T/C: the source holds a T/C of zero for them, seemingly a mark for toxic or unscored doses. Survivors were counted at the toxicity check, usually on the fifth day, unless a day is given; later deaths do not show. Numbered stars: 1 amine (or outer) side, 2 acyl side, 3 side chain; on linkers, the order of the positions; unused ones are H or OH. Bridge positions count the residues as written; N and C are the ends. Square brackets hold non-standard residues; d marks the D form. Peptide text beside a SMILES is read from it. I, II: the chains in the order shown. Actinocin(9to1) = Cc1c2oc3c(C)ccc(C(=O)[*:1])c3nc-2c(C(=O)[*:2])c(N)c1=O; aThr = C[C@H](O)[C@H](N)C(=O)O; NMeV = CN[C@H](C(=O)O)C(C)C; Sar = CNCC(=O)O

For the molecule `C1OC1CO[C@@H]1CO[C@H]2[C@@H]1OC[C@H]2OCC1CO1` (stereo not given in full), the survivor count (dose: 400.0 mg/kg/injection, schedule: Q01DX010 (sc), vehicle: saline with Tween-80) is recorded as 1 of 2 on day 11.
In the case of `O=c1[nH]cnc2c1ccn2C1OC(CO)C(O)C1O` (stereo not given), the T/C runs as follows: (dose: 6.25 mg/kg/injection, schedule: Q04DX003 (sc), vehicle: saline) 131 % of control; (dose: 25.0 mg/kg/injection, schedule: Q04DX003 (sc), vehicle: saline) 130 % of control [5 of 6 alive on day 11].
In the case of `COc1ccc(CC2C(=O)NC(C)C(=O)N(C)C3C(=O)N(C)C(Cc4ccc(O)c(c4)Oc4ccc(cc4)C3O)C(=O)NC(C)C(=O)NC(C)C(=O)N2C)cc1` (stereo not given), the T/C (dose: 0.25 mg/kg/injection, schedule: Q01DX010 (sc), vehicle: saline with Tween-80) was 138 % of control. For the same molecule, the survivor count (dose: 8.0 mg/kg/injection, schedule: Q01DX010 (sc), vehicle: saline with Tween-80) is listed as 0 of 3 on day 11.
For `CCC(C)Nc1ccc(N)cc1` (stereo not given), the survivor count (dose: 36.0 mg/kg/injection, schedule: Q04DX003 (sc), vehicle: Klucel (hydroxypropylcellulose) (HPC)) is 1 of 6 on day 11 and the survivor count (dose: 72.0 mg/kg/injection, schedule: Q04DX003 (sc), vehicle: Klucel (hydroxypropylcellulose) (HPC)) is 0 of 6 on day 11.
For the molecule `Cc1c2oc3c(C)ccc(C(=O)N[C@@H]4C(=O)N[C@H](C(C)C)C(=O)N5CCC[C@H]5C(=O)N(C)CC(=O)N(C)[C@@H](C(C)C)C(=O)O[C@H]4C)c3nc-2c(C(=O)N[C@@H]2C(=O)N[C@H](C(C)C)C(=O)N3CCC[C@H]3C(=O)N(C)CC(=O)N(C)[C@@H](C(C)C)C(=O)O[C@H]2C)c(N)c1=O` (I: [aThr][dV]P[Sar][NMeV] / II: [aThr][dV]P[Sar][NMeV]; ester I:1-I:C, II:1-II:C; linker I:N-II:N via Actinocin(9to1)), the survivor count is, setting by setting: (dose: 200.0 micrograms/kg/injection, schedule: Q01DX010 (sc), vehicle: saline) 1 of 3 on day 11; (dose: 400.0 micrograms/kg/injection, schedule: Q01DX010 (sc), vehicle: saline) 0 of 3 on day 11; (dose: 800.0 micrograms/kg/injection, schedule: Q01DX010 (sc), vehicle: saline) 0 of 3 on day 11.
Turning to `COc1ccc(C(=O)C(CN(C)C)CN(C)C)cc1`, the survivor count under setting [1] was 0 of 6 on day 11.
Take `ClCc1ccc2ccccc2n1`: the survivor count under setting [2] is 2 of 6 on day 11.
As for `Cc1noc(N)c1N`, the T/C (dose: 300.0 mg/kg/injection, schedule: Q04DX003 (sc), vehicle: water) is 147 % of control [5 of 6 alive on day 11]. For the same molecule, under “dose: 2400.0 mg/kg/injection, schedule: Q04DX003 (sc), vehicle: water”, the survivor count was 1 of 6 on day 11.
Regarding `COc1ccc(S(=O)(=O)N=N/C=C2\C=CC=CN2O)cc1OC`, the T/C (dose: 37.5 mg/kg/injection, schedule: Q04DX003 (sc), vehicle: saline with Tween-80) was 130 % of control. For the same molecule, the survivor count under setting [2] is on record as 0 of 6 on day 11.
Take `O=C(O)c1ccc(C(=O)O)c(C(=O)O)c1.[NH-]C1CCCCC1[NH-].[Pt+2]`: the survivor count (dose: 12.5 mg/kg/injection, schedule: Q01DX010 (sc), vehicle: sodium bicarbonate) is listed as 0 of 6 on day 11 and the survivor count (dose: 25.0 mg/kg/injection, schedule: Q01DX010 (sc), vehicle: sodium bicarbonate) is listed as 0 of 6 on day 11.
On to `O=C1CC2(C(=O)N1CN1CCCCC1)c1ccccc1-c1ccccc12`, for which the survivor count reads like this: (dose: 800.0 mg/kg/injection, schedule: Q04DX003 (sc), vehicle: Klucel (hydroxypropylcellulose) (HPC)) 3 of 6 on day 11; (dose: 1600.0 mg/kg/injection, schedule: Q04DX003 (sc), vehicle: Klucel (hydroxypropylcellulose) (HPC)) 1 of 6 on day 11.
Consider `C[C@H](N)C(=O)N[C@@H]1[C@H]2C(=C(O)C[C@@H](O)[C@@H]2O)C(=O)O[C@]1(C)C(Cl)Cl`, for which the survivor count (dose: 12.0 mg/kg/injection, schedule: Q04DX003 (sc), vehicle: Klucel (hydroxypropylcellulose) (HPC)) is reported as 0 of 6 on day 11.
With `CN1N=C(N)c2cn(C3OC(COP(=O)(O)O)C(O)C3O)c3ncnc1c23` (stereo not given), where the note is “dose: 100.0 mg/kg/injection, schedule: Q01DX010 (sc), vehicle: water”, the survivor count is reported as 0 of 3 on day 11.
As to `CC[C@](O)(C(=O)O)c1cc2n(c(=O)c1CO)Cc1cc3ccccc3nc1-2`, the survivor count is reported as 1 of 6 on day 11 (dose: 32.0 mg/kg/injection, schedule: Q04DX003 (sc), vehicle: saline); 0 of 6 on day 11 (dose: 64.0 mg/kg/injection, schedule: Q04DX003 (sc), vehicle: saline); 0 of 6 on day 11 under setting [1]; 0 of 6 on day 11 (dose: 128.0 mg/kg/injection, schedule: Q04DX003 (sc), vehicle: saline); 0 of 6 on day 11 (dose: 200.0 mg/kg/injection, schedule: Q04DX003 (sc), vehicle: saline); 0 of 6 on day 11 (dose: 250.0 mg/kg/injection, schedule: Q04DX003 (sc), vehicle: saline). For the same molecule, the survivor count is 0 of 6 on day 11 (dose: 400.0 mg/kg/injection, schedule: Q04DX003 (sc), vehicle: saline) and 0 of 6 on day 11 under setting [3].
In the case of `CN=C(N)N/N=C(\C)c1ccc2c(c1)Cc1ccccc1-2`, the survivor count under setting [2] was 2 of 6 on day 11.
Take `C=CS(=O)(=O)c1ccccc1`: the survivor count under setting [4] was 0 of 3 on day 11.
In the case of `CC(=O)N(C)C`, the T/C is, setting by setting: (dose: 900.0 mg/kg/injection, schedule: Q01DX010 (sc), vehicle: saline) 143 % of control; (dose: 1800.0 mg/kg/injection, schedule: Q01DX010 (sc), vehicle: saline) 125 % of control. Moreover, for the setting “dose: 3600.0 mg/kg/injection, schedule: Q01DX010 (sc), vehicle: saline”, the survivor count is listed as 1 of 3 on day 11.
For the molecule `c1csc(C[N+]23CN4CN(CN(C4)C2)C3)c1`, the survivor count under setting [3] is reported as 0 of 5 on day 11.
Consider `CCC(=O)N(C)[C@@H](C)C(=O)O[C@H]1CC(=O)N(C)c2cc(cc(OC)c2Cl)C/C(C)=C/C=C[C@@H](OC)[C@@]2(O)C[C@H](OC(=O)N2)[C@@H](C)[C@@H]2O[C@@]12C`, for which the survivor count (dose: 0.5 mg/kg/injection, schedule: Q01DX010 (sc), vehicle: saline + alcohol) was 0 of 3 on day 11 and the survivor count (dose: 1.0 mg/kg/injection, schedule: Q01DX010 (sc), vehicle: saline + alcohol) is 0 of 3 on day 11.
As to `CCN(CC)c1ccc2cc(-c3nc4ccccc4n3C)c(=O)oc2c1`, for the setting “dose: 300.0 mg/kg/injection, schedule: Q04DX003 (sc), vehicle: Klucel (hydroxypropylcellulose) (HPC)”, the T/C is 144 % of control [4 of 6 alive on day 11]. The survivor count (dose: 600.0 mg/kg/injection, schedule: Q04DX003 (sc), vehicle: Klucel (hydroxypropylcellulose) (HPC)) is listed as 1 of 6 on day 11.
For the molecule `O=C1c2ccccc2C(=O)c2c(NCCNCCO)ccc(NCCNCCO)c21`, the T/C (dose: 8.0 mg/kg/injection, schedule: Q01DX010 (sc), vehicle: water) is 129 % of control. Moreover, the survivor count (dose: 32.0 mg/kg/injection, schedule: Q01DX010 (sc), vehicle: water) was 0 of 3 on day 11.
For `Cc1ncc(CNC(=O)N(CCCl)N=O)c(N)n1`, the survivor count is 3 of 6 on day 11 (dose: 37.5 mg/kg/injection, schedule: Q04DX003 (sc), vehicle: saline); 0 of 6 on day 11 (dose: 75.0 mg/kg/injection, schedule: Q04DX003 (sc), vehicle: saline); 0 of 6 on day 11 (dose: 150.0 mg/kg/injection, schedule: Q04DX003 (sc), vehicle: saline).
For the molecule `CNNCc1ccc(C(=O)NC(C)C)cc1`, the T/C runs as follows: (dose: 100.0 mg/kg/injection, schedule: Q01DX010 (sc), vehicle: saline) -73, 1, 3, 6, 23 % of control; under setting [4], -44, -34, -9, 5, 21 % of control; (dose: 400.0 mg/kg/injection, schedule: Q01DX010 (sc), vehicle: saline) -86, -31 [2 of 3 alive on day 11], 2 [2 of 3 alive on day 11], 4 [2 of 3 alive on day 11], 12 % of control [2 of 3 alive on day 11]. Further, the survivor count is on record as 0 of 3 on day 11 (dose: 800.0 mg/kg/injection, schedule: Q01DX010 (sc), vehicle: saline) and 0 of 3 on day 11 (dose: 1333.3 mg/kg/injection, schedule: Q04DX003 (ip), vehicle: saline).
